{
  "sequences": {"note": "The chains behind the UniProt entries cited, without tags or fusion partners. Residues count along the entry.", "UniProt P36544, residues 23-502": "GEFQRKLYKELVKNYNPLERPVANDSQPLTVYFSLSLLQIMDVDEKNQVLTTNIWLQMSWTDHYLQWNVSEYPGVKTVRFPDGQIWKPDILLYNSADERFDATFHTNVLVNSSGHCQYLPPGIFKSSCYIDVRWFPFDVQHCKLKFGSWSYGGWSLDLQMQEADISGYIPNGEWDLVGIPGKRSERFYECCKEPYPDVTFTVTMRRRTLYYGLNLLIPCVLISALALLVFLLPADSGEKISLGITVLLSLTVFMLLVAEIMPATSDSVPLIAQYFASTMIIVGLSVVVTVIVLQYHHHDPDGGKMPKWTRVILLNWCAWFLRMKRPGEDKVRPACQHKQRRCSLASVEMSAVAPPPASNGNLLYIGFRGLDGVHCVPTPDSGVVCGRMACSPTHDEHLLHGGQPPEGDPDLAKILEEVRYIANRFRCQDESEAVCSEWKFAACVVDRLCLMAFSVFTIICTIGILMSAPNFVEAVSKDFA", "UniProt P60615, residues 22-95": "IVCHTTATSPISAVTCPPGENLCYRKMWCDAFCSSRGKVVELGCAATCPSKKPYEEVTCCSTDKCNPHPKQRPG"},
  "source": "paper PMC2654408",
  "about": "(PLoS ONE, 2009)",
  "target": "human alpha-7 nicotinic acetylcholine receptor (human) (UniProt P36544)",
  "assay": "radioligand binding; only the binder purified",
  "note": "Results are given in words; binding and its absence hold for the method and conditions named. Some binding calls cover weakened binding; strength is not graded here.",
  "data": [
    {"substance": "[125I]alpha-bungarotoxin (from UniProt P60615 22-95) (ligand)", "values": [
      {"measurement": "binding", "value": "binds"}
    ]}
  ]
}
